The series concerns the target Hfq (His6-Hfq) (Histophilus somni strain 2336) (UniProt B0UTF5). Description: EMSA. The settings on record: 0.65-5 uM Hfq, yeast tRNA competitor; 10 mM Tris-HCl pH 7.4, 6% glycerol, 50 ug/ml BSA, 0.75 ug baker's yeast tRNA, 200 ng sRNA, 15 ul, room temperature 30 min; 6% native PAGE, 0.5x TBE, GelGreen stain; recombinant protein; residues 1-96; protein details: His6 and V5 epitope (pET101/D-TOPO); probe letters rebuilt from the primers and the genome. In general terms: Mobility shift assays separate free from complexed probe on a gel.

Chains of the proteins cited; added tags and fusions are not shown. Lines headed by an entry give the natural chain unless they say otherwise; changes in a name come on top.
UniProt B0UTF5: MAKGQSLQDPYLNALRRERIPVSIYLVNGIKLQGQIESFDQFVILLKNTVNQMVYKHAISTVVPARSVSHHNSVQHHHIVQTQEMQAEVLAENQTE

Regarding “GGGGUGUAUAAUAGAAAUCAAAUAAUCGUGUUUAACGGUUUGGUCUGGAAACUUCAACGUUAAAACACUUGUAACGGAUAAGCCCUAUAGCCAAAUAGGGCUUUUUCUUUAUCUGUACCUUUUAGCUUAGGGAUAGUUACCGACAGGCGAAACCGCCGUUUACGGCGGUUGAGUUUUUAGAGCUGAAGCAAGGCAGAAAUGCCGUAGCCUGAAGCCUAAAAAUAUAGCCCGACCGCACGCUUUUGCGUGGGGUAAGCCCCUAAACCAUAUAAACUGGUUGCUAUUGUACCGCCUGACUUAUACAAAGAUCAAGUAAGAUCUAAAAUCCACGCAAAAAAAAUUUUUU [HS79 sRNA]”, the binding result is “binds”.

These data come from paper PMC10204968.
